doi:10.1101/2023.10.14.562322
Results are given in words; binding and its absence hold for the method and conditions named. Binding seen in cells or lysates may run through a third protein. Some entries that bind do so weakly or less than the wild type. Where a sequence is shown, tags or fusion partners need not be part of it.

Amino acid sequences for entries named in this document (tags omitted). A change or cut given only in a name is not applied to a line headed by its entry.
UniProt O75821, whole entry: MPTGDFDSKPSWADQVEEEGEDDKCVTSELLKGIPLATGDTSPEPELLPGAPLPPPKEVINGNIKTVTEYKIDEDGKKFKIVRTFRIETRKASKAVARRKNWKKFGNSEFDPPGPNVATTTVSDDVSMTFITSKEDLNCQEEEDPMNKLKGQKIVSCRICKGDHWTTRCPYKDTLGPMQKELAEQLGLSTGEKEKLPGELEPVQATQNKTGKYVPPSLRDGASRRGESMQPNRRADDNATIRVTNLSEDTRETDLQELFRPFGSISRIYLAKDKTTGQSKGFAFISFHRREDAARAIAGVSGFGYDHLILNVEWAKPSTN
UniProt Q9Y262, whole entry: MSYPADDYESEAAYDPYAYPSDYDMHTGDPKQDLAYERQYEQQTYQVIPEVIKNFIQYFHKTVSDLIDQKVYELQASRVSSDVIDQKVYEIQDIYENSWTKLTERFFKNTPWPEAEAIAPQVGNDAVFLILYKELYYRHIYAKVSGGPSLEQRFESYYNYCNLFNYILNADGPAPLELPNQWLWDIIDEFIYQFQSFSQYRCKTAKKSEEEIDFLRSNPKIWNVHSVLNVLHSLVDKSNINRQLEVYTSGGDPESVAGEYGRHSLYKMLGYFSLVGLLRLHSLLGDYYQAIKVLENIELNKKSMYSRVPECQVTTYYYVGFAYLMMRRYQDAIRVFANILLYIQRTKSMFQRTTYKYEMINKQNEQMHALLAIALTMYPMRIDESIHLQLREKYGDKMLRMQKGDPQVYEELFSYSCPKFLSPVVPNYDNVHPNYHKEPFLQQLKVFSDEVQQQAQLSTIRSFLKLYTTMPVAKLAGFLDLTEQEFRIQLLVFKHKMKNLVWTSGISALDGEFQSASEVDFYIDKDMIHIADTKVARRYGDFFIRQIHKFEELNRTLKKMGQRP
UniProt O15371, whole entry: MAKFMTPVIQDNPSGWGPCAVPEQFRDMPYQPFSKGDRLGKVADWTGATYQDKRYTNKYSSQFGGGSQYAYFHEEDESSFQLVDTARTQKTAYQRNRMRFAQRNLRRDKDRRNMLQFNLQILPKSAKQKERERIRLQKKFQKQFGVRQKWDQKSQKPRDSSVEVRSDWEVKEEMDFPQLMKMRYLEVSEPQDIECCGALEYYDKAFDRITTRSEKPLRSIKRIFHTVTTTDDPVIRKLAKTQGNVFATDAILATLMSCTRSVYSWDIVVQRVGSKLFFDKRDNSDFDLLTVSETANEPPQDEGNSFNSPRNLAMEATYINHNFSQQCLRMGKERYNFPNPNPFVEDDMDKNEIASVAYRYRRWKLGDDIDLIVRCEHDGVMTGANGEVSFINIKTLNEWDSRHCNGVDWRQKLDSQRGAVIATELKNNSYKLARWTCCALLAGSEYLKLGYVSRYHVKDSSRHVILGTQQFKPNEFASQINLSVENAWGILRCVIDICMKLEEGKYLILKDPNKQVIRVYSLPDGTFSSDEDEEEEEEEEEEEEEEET
UniProt O60573, whole entry: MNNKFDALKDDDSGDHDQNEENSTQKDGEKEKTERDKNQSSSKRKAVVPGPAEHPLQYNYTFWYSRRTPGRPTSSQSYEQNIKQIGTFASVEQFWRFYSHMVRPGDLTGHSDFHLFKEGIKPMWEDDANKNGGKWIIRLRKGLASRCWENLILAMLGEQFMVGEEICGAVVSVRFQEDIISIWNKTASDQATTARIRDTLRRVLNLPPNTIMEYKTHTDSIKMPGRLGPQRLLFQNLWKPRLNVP

What was measured:
[1] = target: T1, v5-GIGYF1-Mut (4EHP-binding mutant GIGYF1; Y39A, Y41A, M46A, L47A) (human) (UniProt O75420); assay: co-IP
T1 sequence: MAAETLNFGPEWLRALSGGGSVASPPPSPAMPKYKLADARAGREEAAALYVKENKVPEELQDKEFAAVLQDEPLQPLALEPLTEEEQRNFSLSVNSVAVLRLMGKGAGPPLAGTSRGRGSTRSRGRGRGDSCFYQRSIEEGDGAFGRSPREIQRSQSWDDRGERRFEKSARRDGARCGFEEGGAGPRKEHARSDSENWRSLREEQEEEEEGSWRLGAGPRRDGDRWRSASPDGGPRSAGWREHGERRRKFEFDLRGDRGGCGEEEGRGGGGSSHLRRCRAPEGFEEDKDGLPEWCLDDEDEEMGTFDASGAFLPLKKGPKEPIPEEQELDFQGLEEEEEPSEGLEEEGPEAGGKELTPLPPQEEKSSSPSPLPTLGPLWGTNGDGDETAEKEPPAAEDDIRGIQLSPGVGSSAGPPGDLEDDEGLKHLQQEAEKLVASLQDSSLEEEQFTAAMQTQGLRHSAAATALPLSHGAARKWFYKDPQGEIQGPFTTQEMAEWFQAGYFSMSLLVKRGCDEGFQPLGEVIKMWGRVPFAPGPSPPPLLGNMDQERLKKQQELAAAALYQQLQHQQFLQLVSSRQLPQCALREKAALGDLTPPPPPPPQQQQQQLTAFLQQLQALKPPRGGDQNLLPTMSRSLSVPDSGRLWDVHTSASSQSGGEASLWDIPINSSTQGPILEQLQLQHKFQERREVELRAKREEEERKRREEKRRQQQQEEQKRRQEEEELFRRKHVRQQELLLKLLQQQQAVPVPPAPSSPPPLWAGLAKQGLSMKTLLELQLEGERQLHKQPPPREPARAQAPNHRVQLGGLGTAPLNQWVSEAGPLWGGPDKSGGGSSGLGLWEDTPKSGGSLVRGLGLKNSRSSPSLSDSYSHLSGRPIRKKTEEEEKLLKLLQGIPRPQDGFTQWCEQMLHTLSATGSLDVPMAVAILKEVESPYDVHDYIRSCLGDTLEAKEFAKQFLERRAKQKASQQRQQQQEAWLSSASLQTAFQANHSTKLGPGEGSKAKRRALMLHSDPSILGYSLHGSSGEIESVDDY

[2] = target: T2, v5-GIGYF1 (full-length human GIGYF1) (human) (UniProt O75420); assay: co-IP
T2 sequence: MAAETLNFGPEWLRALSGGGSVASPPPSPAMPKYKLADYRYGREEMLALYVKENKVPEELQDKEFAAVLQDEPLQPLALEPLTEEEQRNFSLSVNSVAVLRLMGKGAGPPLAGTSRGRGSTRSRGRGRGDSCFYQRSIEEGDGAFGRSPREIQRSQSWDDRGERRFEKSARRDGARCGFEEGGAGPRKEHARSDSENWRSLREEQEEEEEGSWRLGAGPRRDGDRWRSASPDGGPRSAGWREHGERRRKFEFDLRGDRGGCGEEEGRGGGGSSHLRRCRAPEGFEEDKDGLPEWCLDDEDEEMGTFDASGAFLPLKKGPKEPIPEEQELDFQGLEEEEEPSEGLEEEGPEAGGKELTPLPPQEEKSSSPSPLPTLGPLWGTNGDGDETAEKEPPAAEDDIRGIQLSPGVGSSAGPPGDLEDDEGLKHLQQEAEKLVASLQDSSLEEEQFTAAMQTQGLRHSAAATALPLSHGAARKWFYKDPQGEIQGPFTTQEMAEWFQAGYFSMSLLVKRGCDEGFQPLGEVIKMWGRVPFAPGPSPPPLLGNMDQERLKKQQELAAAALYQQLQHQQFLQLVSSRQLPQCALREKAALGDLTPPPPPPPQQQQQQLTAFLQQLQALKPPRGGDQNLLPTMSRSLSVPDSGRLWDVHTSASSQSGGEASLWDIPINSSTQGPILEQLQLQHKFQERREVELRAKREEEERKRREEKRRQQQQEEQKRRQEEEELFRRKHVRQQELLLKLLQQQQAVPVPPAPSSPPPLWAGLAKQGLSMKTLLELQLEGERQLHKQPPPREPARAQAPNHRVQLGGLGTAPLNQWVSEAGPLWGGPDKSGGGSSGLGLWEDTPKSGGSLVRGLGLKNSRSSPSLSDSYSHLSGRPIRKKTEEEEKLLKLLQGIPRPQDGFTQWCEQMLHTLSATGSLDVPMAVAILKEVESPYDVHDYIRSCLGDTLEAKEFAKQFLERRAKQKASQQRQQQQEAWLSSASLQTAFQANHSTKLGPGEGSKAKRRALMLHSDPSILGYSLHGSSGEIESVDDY

FLAG-eIF3G = FLAG-eIF3G (UniProt O75821); assay: proximity ligation
FLAG-eIF3L [3] = target: FLAG-eIF3L (UniProt Q9Y262); assay: proximity ligation
FLAG-eIF3D = FLAG-eIF3D (UniProt O15371); assay: proximity ligation
FLAG-eIF3L [4] = target: FLAG-eIF3L (UniProt Q9Y262); assay: co-IP

binding [1] | binding [2] | binding (FLAG-eIF3G) | binding (FLAG-eIF3L [3]) | binding (FLAG-eIF3D) | binding (FLAG-eIF3L [4]) | Molecule
no binding | binds |  |  |  |  | HA-4EHP (from UniProt O60573 1-245)
 |  | binds | binds | binds | binds | v5-GIGYF1 (full-length human GIGYF1) (protein, UniProt O75420 1-1035) MAAETLNFGPEWLRALSGGGSVASPPPSPAMPKYKLADYRYGREEMLALYVKENKVPEELQDKEFAAVLQDEPLQPLALEPLTEEEQRNFSLSVNSVAVLRLMGKGAGPPLAGTSRGRGSTRSRGRGRGDSCFYQRSIEEGDGAFGRSPREIQRSQSWDDRGERRFEKSARRDGARCGFEEGGAGPRKEHARSDSENWRSLREEQEEEEEGSWRLGAGPRRDGDRWRSASPDGGPRSAGWREHGERRRKFEFDLRGDRGGCGEEEGRGGGGSSHLRRCRAPEGFEEDKDGLPEWCLDDEDEEMGTFDASGAFLPLKKGPKEPIPEEQELDFQGLEEEEEPSEGLEEEGPEAGGKELTPLPPQEEKSSSPSPLPTLGPLWGTNGDGDETAEKEPPAAEDDIRGIQLSPGVGSSAGPPGDLEDDEGLKHLQQEAEKLVASLQDSSLEEEQFTAAMQTQGLRHSAAATALPLSHGAARKWFYKDPQGEIQGPFTTQEMAEWFQAGYFSMSLLVKRGCDEGFQPLGEVIKMWGRVPFAPGPSPPPLLGNMDQERLKKQQELAAAALYQQLQHQQFLQLVSSRQLPQCALREKAALGDLTPPPPPPPQQQQQQLTAFLQQLQALKPPRGGDQNLLPTMSRSLSVPDSGRLWDVHTSASSQSGGEASLWDIPINSSTQGPILEQLQLQHKFQERREVELRAKREEEERKRREEKRRQQQQEEQKRRQEEEELFRRKHVRQQELLLKLLQQQQAVPVPPAPSSPPPLWAGLAKQGLSMKTLLELQLEGERQLHKQPPPREPARAQAPNHRVQLGGLGTAPLNQWVSEAGPLWGGPDKSGGGSSGLGLWEDTPKSGGSLVRGLGLKNSRSSPSLSDSYSHLSGRPIRKKTEEEEKLLKLLQGIPRPQDGFTQWCEQMLHTLSATGSLDVPMAVAILKEVESPYDVHDYIRSCLGDTLEAKEFAKQFLERRAKQKASQQRQQQQEAWLSSASLQTAFQANHSTKLGPGEGSKAKRRALMLHSDPSILGYSLHGSSGEIESVDDY
